These are yes or no findings as the source states them, for the method shown. For some assays here: Binding seen in cells or lysates may run through a third protein. Some results given as binding are weak or reduced against the parent protein; the word gives no strength.
Experiments:
[1] = target: T1, IKKβ, endogenous in HeLa cells (human) (UniProt O14920); assay: immuno-gold electron microscopy of HeLa cells, anti-Hsp60/IKKβ (panel F)
T1 sequence (looked up): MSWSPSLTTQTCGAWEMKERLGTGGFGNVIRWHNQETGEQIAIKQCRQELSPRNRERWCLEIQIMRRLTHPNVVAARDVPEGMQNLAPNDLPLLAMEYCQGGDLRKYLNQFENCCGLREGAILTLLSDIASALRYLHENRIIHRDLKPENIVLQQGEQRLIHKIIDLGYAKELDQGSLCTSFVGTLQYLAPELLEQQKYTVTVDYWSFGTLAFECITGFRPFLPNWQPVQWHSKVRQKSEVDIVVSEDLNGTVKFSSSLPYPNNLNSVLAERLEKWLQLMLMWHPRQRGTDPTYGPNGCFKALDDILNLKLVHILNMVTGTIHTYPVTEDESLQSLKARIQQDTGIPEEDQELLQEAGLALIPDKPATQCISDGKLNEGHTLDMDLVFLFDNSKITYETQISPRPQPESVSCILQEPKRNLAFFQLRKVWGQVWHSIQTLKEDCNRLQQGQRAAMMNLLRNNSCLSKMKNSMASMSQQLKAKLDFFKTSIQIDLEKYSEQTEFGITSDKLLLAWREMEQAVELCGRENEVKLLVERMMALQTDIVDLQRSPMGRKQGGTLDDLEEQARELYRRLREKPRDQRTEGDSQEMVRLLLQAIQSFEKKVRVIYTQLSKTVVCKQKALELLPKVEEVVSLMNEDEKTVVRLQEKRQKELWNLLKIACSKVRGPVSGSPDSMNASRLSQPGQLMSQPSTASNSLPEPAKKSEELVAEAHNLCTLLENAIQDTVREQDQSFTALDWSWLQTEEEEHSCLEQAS

Sequences of proteins named here, by UniProt entry; tags and fusion partners are left off. A change or cut given only in a name is not applied to a line headed by its entry. Residues count along the entry.
UniProt Q9Y6K9: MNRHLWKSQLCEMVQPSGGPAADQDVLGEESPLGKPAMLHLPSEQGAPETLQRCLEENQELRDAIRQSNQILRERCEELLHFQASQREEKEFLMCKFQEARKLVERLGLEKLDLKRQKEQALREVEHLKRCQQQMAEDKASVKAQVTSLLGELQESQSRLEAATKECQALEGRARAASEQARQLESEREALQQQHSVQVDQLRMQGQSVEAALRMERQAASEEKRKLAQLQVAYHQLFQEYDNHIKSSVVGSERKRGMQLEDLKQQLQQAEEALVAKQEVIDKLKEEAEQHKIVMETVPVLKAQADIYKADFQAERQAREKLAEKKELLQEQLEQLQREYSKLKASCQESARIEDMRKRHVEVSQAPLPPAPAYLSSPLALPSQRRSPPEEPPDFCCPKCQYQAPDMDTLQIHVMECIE
UniProt P10809, residues 27-573: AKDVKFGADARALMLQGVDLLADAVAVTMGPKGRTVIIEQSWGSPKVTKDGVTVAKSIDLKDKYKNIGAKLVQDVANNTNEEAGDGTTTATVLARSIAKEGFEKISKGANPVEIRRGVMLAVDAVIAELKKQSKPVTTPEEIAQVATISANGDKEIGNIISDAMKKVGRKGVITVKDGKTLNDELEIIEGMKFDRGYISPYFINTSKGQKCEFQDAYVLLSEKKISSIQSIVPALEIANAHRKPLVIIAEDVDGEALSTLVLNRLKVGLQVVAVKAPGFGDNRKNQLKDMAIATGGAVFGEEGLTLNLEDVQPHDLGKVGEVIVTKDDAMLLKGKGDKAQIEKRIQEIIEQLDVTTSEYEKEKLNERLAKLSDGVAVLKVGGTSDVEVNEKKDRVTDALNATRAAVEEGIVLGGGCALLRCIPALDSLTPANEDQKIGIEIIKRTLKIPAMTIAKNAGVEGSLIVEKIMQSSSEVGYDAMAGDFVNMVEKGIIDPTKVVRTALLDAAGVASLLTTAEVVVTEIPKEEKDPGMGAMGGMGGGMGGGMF

[2] = target: T2, IKK complex, endogenous in HeLa cells (IKKα/β/γ subunits) (human) (UniProt O15111+O14920+Q9Y6K9); assay: co-immunoprecipitation from HeLa lysate with antibodies against IKKα, IKKβ and IKKγ; immunoblot
[3] = target: T2, IKK complex, endogenous in HeLa cells (IKKα/β/γ subunits) (human); assay: co-immunoprecipitation from HeLa lysates with IKKα, IKKβ and IKKγ-specific antibodies; immunoblot
[4] = target: T3, IKKα, endogenous in HeLa cells (human) (UniProt O15111); assay: immuno-gold electron microscopy of HeLa cells, anti-Hsp60/IKKα double staining (FIG. 7E)
T3 sequence (looked up): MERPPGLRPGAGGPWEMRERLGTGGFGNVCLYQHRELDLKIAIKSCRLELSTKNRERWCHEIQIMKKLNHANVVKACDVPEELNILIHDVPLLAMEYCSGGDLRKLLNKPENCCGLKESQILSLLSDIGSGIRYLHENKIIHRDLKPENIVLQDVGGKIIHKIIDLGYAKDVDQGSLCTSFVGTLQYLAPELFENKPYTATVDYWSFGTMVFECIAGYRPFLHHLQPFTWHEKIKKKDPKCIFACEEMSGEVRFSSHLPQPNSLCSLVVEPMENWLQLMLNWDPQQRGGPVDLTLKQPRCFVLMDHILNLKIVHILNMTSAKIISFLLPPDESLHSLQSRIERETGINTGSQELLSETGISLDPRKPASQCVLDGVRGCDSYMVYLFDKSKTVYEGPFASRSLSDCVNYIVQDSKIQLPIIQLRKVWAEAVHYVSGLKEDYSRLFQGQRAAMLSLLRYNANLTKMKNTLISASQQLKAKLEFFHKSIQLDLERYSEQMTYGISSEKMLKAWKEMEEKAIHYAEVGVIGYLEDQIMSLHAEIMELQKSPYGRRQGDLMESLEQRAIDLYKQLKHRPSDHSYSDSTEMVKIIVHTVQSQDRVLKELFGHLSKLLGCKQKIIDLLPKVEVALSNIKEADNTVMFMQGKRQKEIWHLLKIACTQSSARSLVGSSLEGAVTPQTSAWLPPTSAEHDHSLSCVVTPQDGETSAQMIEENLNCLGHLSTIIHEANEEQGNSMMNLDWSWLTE

[5] = target: T2, IKK complex, endogenous in HeLa cells (IKKα/β/γ subunits) (human); assay: immuno-affinity purification of IKK complex from unstimulated HeLa S3 lysate with anti-IKKα antibody beads; LC-MS/MS, confirmed by immunoblot
[6] = target: T3, IKKα, endogenous in HeLa cells (human); assay: immuno-gold electron microscopy of HeLa cells, anti-Hsp60/IKKα (panel E)
[7] = target: T1, IKKβ, endogenous in HeLa cells (human); assay: immuno-gold electron microscopy of HeLa cells, anti-Hsp60/IKKβ double staining (FIG. 7F)
[8] = target: T2, IKK complex, endogenous in HeLa cells (IKKα/β/γ subunits) (human); assay: reverse immunoprecipitation from HeLa cytosolic fraction with anti-Hsp60 antibodies; IKKγ immunoblot

binding [1]: binds
binding [2]: binds
binding [3]: binds
binding [4]: binds
binding [5]: binds
binding [6]: binds
binding [7]: binds
binding [8]: binds
Substance: Hsp60 (heat shock protein 60 kDa), endogenous in HeLa cells (from UniProt P10809 27-573)

Source: US20120308568A1
